Publication PMC7819943, “Rice protein-binding microarrays: a tool to detect cis-acting elements near promoter regions in rice”
The list shows a part of the results.

Amino acid sequences for entries named in this document (tags omitted).
UniProt Q0JBA9, entry or part of it: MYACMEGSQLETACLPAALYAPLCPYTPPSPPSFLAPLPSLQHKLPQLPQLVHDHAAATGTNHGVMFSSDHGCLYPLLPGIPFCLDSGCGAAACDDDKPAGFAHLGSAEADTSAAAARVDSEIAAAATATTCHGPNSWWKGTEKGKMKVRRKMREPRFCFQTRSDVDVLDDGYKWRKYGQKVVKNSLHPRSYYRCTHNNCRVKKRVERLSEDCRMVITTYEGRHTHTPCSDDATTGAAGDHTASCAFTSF

target: OsWRKY34 (Oryza sativa, UniProt Q0JBA9 1-250); assay: protein-binding microarray (RPBM); PBS, 2% BSA, 51.3 ng/ul salmon testes DNA, 50 uM zinc acetate, 200 nM TF, 25 C, 1 h; high values mean tight binding; conditions: protein: recombinant; tags: N-terminal polyhistidine and DsRed monomer fusion (pET32a); label: CyDye5-dUTP incorporated in the synthesized complementary strand; 3' TTTTT single-stranded linker to array surface; dsDNA, one strand shown
Summary of the method: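 The binding signal for each feature is its fluorescence intensity in arbitrary units. An Axon 4000B scanner was used to read a custom Agilent array that had been made double-stranded with Cy5-dUTP primer extension, blocked with 2% BSA, incubated at 25 °C for 1 h with 200 nM protein in PBS, 2% BSA, salmon testes DNA and 50 µM zinc acetate, and washed. The protein was an N-terminal polyhistidine–DsRed transcription factor fusion from E. coli BL21-CodonPlus, purified on Ni–NTA.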

Sequence	binding signal
CCGCCGCCACCGCCGCCGCCGCCGCCGCTTCACTCGCCGGCGGAGTCACCTAGTGCAG	10300 fluorescence intensity (a.u.)
TGTCTCTTTCTCTCTGTTGGGCCATTCTAGCTCATCTCCTCGGAGTCACCTAGTGCAG	9970 fluorescence intensity (a.u.)
TCGATTTCAGATTGTTTTTTTTTTCTGTGCGTCGTGATTTCGGAGTCACCTAGTGCAG	10700 fluorescence intensity (a.u.)
ATCAAACCTACACACACTAAGCTAACACACATTTACAGTCCGGAGTCACCTAGTGCAG	8920 fluorescence intensity (a.u.)
TAGGGATGGGGAAGAGGAGTCAGCGCAGTCGCCGCGGATCCGGAGTCACCTAGTGCAG	8360 fluorescence intensity (a.u.)
AACCCTGGGTTTCCGTGTCCAACTTTGACTGTCCATCTTACGGAGTCACCTAGTGCAG	9940 fluorescence intensity (a.u.)
AACATTTATCTTCTTTCTTTTCTATATGGCATATAAGGGTCGGAGTCACCTAGTGCAG	9670 fluorescence intensity (a.u.)
TTGTGTTTGTGTGTGTGTTTGTGCTGATTTGGGCATTGGTCGGAGTCACCTAGTGCAG	8490 fluorescence intensity (a.u.)
TTTCCCTTCAGTTTCAGTTGTGTTTGTGTCGTGTACAGGCCGGAGTCACCTAGTGCAG	11400 fluorescence intensity (a.u.)
ATTCAGTTTTATCTAATTTTTCTCATTTTATCTGATTTTTCGGAGTCACCTAGTGCAG	10200 fluorescence intensity (a.u.)
GACTCCATATATCCTTTCTTGGTAGCTCACCCATTGCCATCGGAGTCACCTAGTGCAG	8380 fluorescence intensity (a.u.)
TTCTTGTACAAGGTTGGTTCTTTAACTTTCACTACACCATCGGAGTCACCTAGTGCAG	10200 fluorescence intensity (a.u.)
CAACTTATCTCTTTACGACTAATTTTTTTACACTGTTAGTCGGAGTCACCTAGTGCAG	10500 fluorescence intensity (a.u.)
GTGTGTGTGTCTGTGACAAGTTCCAAGCTAGCAACAACAACGGAGTCACCTAGTGCAG	9030 fluorescence intensity (a.u.)
AAATCCACATTCTCTGGTCCCACACCTGTCACCGTCCCATCGGAGTCACCTAGTGCAG	9090 fluorescence intensity (a.u.)
AATCTACGCTTCAACATTGGGGAATCAGGGGTTTTCTCTCCGGAGTCACCTAGTGCAG	8650 fluorescence intensity (a.u.)
CGGTGGTGGATTGAGGCGGTGGGATTCGGCGGTGTTTAAACGGAGTCACCTAGTGCAG	13400 fluorescence intensity (a.u.)
TCTCTCTCTCTCTCTCTCTCTCTCTCTCTCTCTCTCCGGCCGGAGTCACCTAGTGCAG	8470 fluorescence intensity (a.u.)
TCCCGCTTCTCCTCCGTCGCTCTCCGCCGCCGCCGCCACCCGGAGTCACCTAGTGCAG	10200 fluorescence intensity (a.u.)
AACACCACGGCACAGACAACATTCTTCATGTTTACAACAACGGAGTCACCTAGTGCAG	8910 fluorescence intensity (a.u.)
GCGTCAGTAACAAATCACCGCTCCGTATCTAACCATTCATCGGAGTCACCTAGTGCAG	9080 fluorescence intensity (a.u.)

Sequence	binding signal
TCGTATACACCCTCACCTATAGTGCACATACAAAATAATTCGGAGTCACCTAGTGCAG	8190 fluorescence intensity (a.u.)
AGCACGAGGTATTAATTTCATGCTACAGTCAAAATATTTTCGGAGTCACCTAGTGCAG	8700 fluorescence intensity (a.u.)
AGTACAGCTAGCCGCGGGTCCCTATCCATGCCATCGTAAACGGAGTCACCTAGTGCAG	8870 fluorescence intensity (a.u.)
AAAAACCCTATTAGGGTTGGGTTTGTTCTCCATTTTATACCGGAGTCACCTAGTGCAG	10300 fluorescence intensity (a.u.)
CATATCACATCAATTGTTTTTAGCCTTTAGATGATTAATCCGGAGTCACCTAGTGCAG	8120 fluorescence intensity (a.u.)
TTTTGTTGACATTTTCTTTCTTTCCTTGGCATAAGCCAGTCGGAGTCACCTAGTGCAG	10200 fluorescence intensity (a.u.)
GTCGCTGTCATTTGGTTGTTTCATTTGTAATATTAGTTGTCGGAGTCACCTAGTGCAG	11400 fluorescence intensity (a.u.)
GCAAAATAGGTTCTATATTTCACTGTAAATATGTTTTCCACGGAGTCACCTAGTGCAG	8420 fluorescence intensity (a.u.)
TCTCGCACTGGTTAGTTGCTTCCTTGATGTGCTGTGTCCTCGGAGTCACCTAGTGCAG	9830 fluorescence intensity (a.u.)
GGCCCATGCGACGCCACGCCAGGTCCCGCTCATCTCTTCACGGAGTCACCTAGTGCAG	9140 fluorescence intensity (a.u.)
CCAATGTTTTCTTCTCGTTCCTACCTGCGTCGACGTGTGACGGAGTCACCTAGTGCAG	8940 fluorescence intensity (a.u.)
CATCAAAATATTTTTTTCTTGGGCCTTTTTCATCAAAATACGGAGTCACCTAGTGCAG	9010 fluorescence intensity (a.u.)
CCTCCGCCGCGCGCCCCGACCGCTCCGCCGCCTTCGCCGCCGGAGTCACCTAGTGCAG	10400 fluorescence intensity (a.u.)
ACCATGCATTTGTGTTGCCTCTGTCCCTAATGTAAGCATCCGGAGTCACCTAGTGCAG	9290 ± 407 fluorescence intensity (a.u.)
TGTCCGCTCAATTGCTTTCCTTTCATTTCGTGCGCGCGAGCGGAGTCACCTAGTGCAG	11200 fluorescence intensity (a.u.)
ACTAGCTTCATTGTGGGGTTTTAGAGTTCCCTGGTAGGCACGGAGTCACCTAGTGCAG	8180 fluorescence intensity (a.u.)
GGATTTCTGCTTCTGTTCGATCTCCGCTGCGAAGACGCAACGGAGTCACCTAGTGCAG	8440 fluorescence intensity (a.u.)
ATTTTCTGTGAGCAATCTATTTATAATTTTTAAGTGCAACCGGAGTCACCTAGTGCAG	8180 fluorescence intensity (a.u.)
CTTTGGTAGCTCCGTCGTCTCATTTACTGCTACAGCGATACGGAGTCACCTAGTGCAG	8340 fluorescence intensity (a.u.)
TGGGTTTTATTTTCCCATTCTTTCGAGCTATTTTGACGGACGGAGTCACCTAGTGCAG	8220 fluorescence intensity (a.u.)
GTATCGCCAAGGAGGAGAGGGGAGAGGGGTGGAAGAGGAACGGAGTCACCTAGTGCAG	11900 fluorescence intensity (a.u.)

Some of the entries so far, with each value named.
ACTAGCTTCATTGTGGGGTTTTAGAGTTCCCTGGTAGGCACGGAGTCACCTAGTGCAG
  binding signal: 8180 fluorescence intensity (a.u.)
GGATTTCTGCTTCTGTTCGATCTCCGCTGCGAAGACGCAACGGAGTCACCTAGTGCAG
  binding signal: 8440 fluorescence intensity (a.u.)
ATTTTCTGTGAGCAATCTATTTATAATTTTTAAGTGCAACCGGAGTCACCTAGTGCAG
  binding signal: 8180 fluorescence intensity (a.u.)
